# Reference: the supplement of paper PMC5407854, “Inhibitor of ppGalNAc-T3-mediated O-glycosylation blocks cancer cell invasiveness and lowers FGF23 levels” (eLife, 2017)
# This is one part of the list. Small differences around the control level are noise.
# Tests used:
# ppGalNAc-T3 sensor = assay: T3 sensor activation Q score (MG/GFP ratio z-score vs DMSO controls) (SD units); higher = more sensor activation (inhibition of ppGalNAc-T3 glycosylation); conditions: HEK293 sensor cells; 10 µM; 6 h
# Procedure: (§1)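 Cells were treated with compound at 10 uM for 6 h, then MG/GFP ratio was read by flow cytometry (10,000 cells per well, duplicate wells). Q = (R - R_neg)/SD_neg relative to DMSO vehicle controls; the signal rises when the glycosyltransferase is inhibited.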
# ppGalNAc-T2 sensor = assay: T2 sensor activation Q score (MG/GFP ratio z-score vs DMSO controls) (SD units); higher = more sensor activation (inhibition of ppGalNAc-T2 glycosylation); conditions: HEK293 sensor cells; 10 µM; 6 h
# Procedure: as §1
Structure (SMILES),T3 sensor activation Q score (ppGalNAc-T3 sensor),T2 sensor activation Q score (ppGalNAc-T2 sensor)
O=C(Nc1cccc(Cl)c1)c1cnccn1,0.3,1.4
Cc1ccsc1CN1CCN(c2ccc(F)cc2)CC1,-0.105,-0.59
Cc1ccc(CNc2ccc3c(c2)OCO3)c(C)c1,-2.44,-6.99
O=S(=O)(Nc1nc2ccccc2s1)c1ccccc1,1.06,0.065
CC1(C)CC(NC(=O)N2c3ccccc3Sc3ccccc32)CC(C)(C)N1,0.275,-0.925
Fc1ccc(CN2CCN(c3ccccn3)CC2)cc1,0.785,0.285
COc1nc(N(C)C)nc(N(C)C)n1,-0.23,1.4
O=[N+]([O-])C1CS(=O)(=O)C=C1N1CCOCC1 (centres undefined),-0.135,-0.15
Cc1cc(OCC(N)=O)ccc1Cl,0.395,-0.165
CC(=O)Nc1ccc(NC(C)=O)cc1,-0.535,-0.03
CC(=O)Nc1ccc(S(=O)(=O)NCCc2ccccc2)cc1,0.245,-0.665
NNC(=O)c1ccc(C(=O)O)cc1,1.65,0.35
CCCc1ccc(C(C)NC(=O)c2cc(C)on2)cc1 (centres undefined),0.87,-0.4
CCN(CC)C(=O)C1CCCN(Cc2cc(OC)c(O)c(OC)c2)C1 (centres undefined),-0.01,0.99
CCOc1ccccc1C(=O)NCCc1ccc(F)cc1,-0.26,0.52
Cc1ccc(NC(=O)Nc2ccc(Cl)cc2)cc1F,0,-0.78
Clc1ccccc1N1CCN(Cc2ccsc2)CC1,0.385,0.22
COc1cc(OC)c(OC)cc1CNC1C2CC3CC(C2)CC1C3 (centres undefined),-0.085,0.225
CCCSc1nnc(-c2ccccc2N)c(=O)[nH]1,-0.255,0.435
CC(C)NC(=O)Nc1cccc(Cl)c1,0.06,-0.69
CC(=O)C1=C(O)C(=O)N(CCO)C1c1ccc(Br)cc1 (centres undefined),-0.155,-0.225
CCN(C(=O)c1ccc(-c2ccccc2)cc1)c1ccccc1,-0.165,1.42
CCOC(=O)N1CCN(Cc2cccc(Cl)c2Cl)CC1,-0.03,0.26
Cc1ccc(Cn2cnc3ccccc32)cc1,-0.22,0.545
COc1cc(Cc2ccc(NC(C)=O)c(OC)c2)ccc1NC(C)=O,-0.115,-0.315
COc1ccc(-c2nc3cc(C)ccc3o2)cc1N,0.035,-0.295

Structure (SMILES),T3 sensor activation Q score (ppGalNAc-T3 sensor),T2 sensor activation Q score (ppGalNAc-T2 sensor)
O=C(NCc1ccco1)c1ccc([N+](=O)[O-])cc1,0.305,0.415
Cc1cc(C)c2c(N)c(C(=O)c3ccc(F)cc3)sc2n1,-0.33,-0.545
COc1cc(OC)c(OC)cc1CN1CCN(C/C=C/c2ccccc2)CC1,0.065,-1.06
O=c1c(Cl)c(Cl)cnn1Cc1ccccc1,-0.28,0.215
CCOc1ccc2nc(SCC)[nH]c2c1,1,0.725
CC(C)CNC(=O)c1ccc(CN2CCc3ccccc3C2)cc1,-0.7,-0.255
COc1ccc2c(Cl)c(C(=O)O)sc2c1,-0.93,-1.2
COc1ccc(CN2CCCN(C)CC2)c(C)c1C,-0.1,-0.12
NNC(=O)c1nc(-c2ccccc2)cc(-c2ccccc2)n1,2.85,0.225
O=[N+]([O-])c1ccc(CN2CCN(Cc3ccccc3)CC2)o1,0.25,1.25
Cc1ccc(NS(=O)(=O)c2ccc(Cl)cc2)cc1,0.59,-0.26
CCc1ccccc1NC(=O)C(C)N1C(=O)c2ccccc2C1=O (centres undefined),0.145,-0.48
O=C(O)C1CCCCN1Cc1ccccc1 (centres undefined),0.435,0.33
OCC(O)Cn1c2ccccc2c2ccccc21 (centres undefined),1.26,2.69
O=C(COc1ccc(Cl)cc1)Nc1ccc(Br)cc1,0.245,0.785
Cc1ccc(OCCCN2CCOCC2)c(C)c1,0.47,1.16
O=C(NCc1ccco1)c1cccc(Cl)c1,-0.36,0.005
O=C1c2cccc([N+](=O)[O-])c2C(=O)N1c1nccs1,-0.475,-0.645
Fc1ccc(CN2CCN(c3ccccn3)CC2)cc1Br,-0.71,-0.045
O=C(Nc1cccc(Cl)c1)c1cccc(Br)c1,0.245,-0.74
O=[N+]([O-])c1ccccc1/C=C/CN1CCN(c2ccccc2)CC1,0.58,-0.86
Cc1cccn(CC(=O)c2ccc(-c3ccccc3)cc2)c1=N,0.25,0.3
CCOc1ccccc1N1CCN(Cc2cc(Br)ccc2OC)CC1,-0.08,0.15
O=[N+]([O-])c1ccc(CN2CCSCC2)cc1,0.27,-0.16
COc1cc(O)c(C(=O)c2ccccc2)cc1[N+](=O)[O-],-0.695,-1
O=C1CC(=O)N(c2cccc(Cl)c2)N1,0.48,0.76

# Three structures from above, ordered by molecular weight, smallest number first:
Structure (SMILES),T3 sensor activation Q score (ppGalNAc-T3 sensor),T2 sensor activation Q score (ppGalNAc-T2 sensor)
O=C(O)C1CCCCN1Cc1ccccc1 (centres undefined),0.435,0.33
O=C(Nc1cccc(Cl)c1)c1cccc(Br)c1,0.245,-0.74
CCc1ccccc1NC(=O)C(C)N1C(=O)c2ccccc2C1=O (centres undefined),0.145,-0.48
